# The other results are listed elsewhere or left out.
# B1: PEB4 (Campylobacter jejuni), A1VYV6 (protein)
# chain: MKKFSLVAAALIAGVALNVNAATVATVNGKSISDAEVSEFFAPMLRGQDFKTLPDNQKKALIQQYIMQDLILQDAKKQNLEKDPLYTKELDRAKDAILVNVYQEKILNTIKIDAAKVKAFYDQNKDKYVKPARVQAKHILVATEKEAKDIINELKGLKGKELDAKFSELAKEKSIDPGSKNQGGELGWFDQSTMVKPFTDAAFALKNGTITTTPVKTNFGYHVILKENSQAKGQIKFDEVKQGIENGLKFEEFKKVINQKGQDLLNSAKVEYK
# What was measured:
# Test in all cases: glycan array binding signal (z-score within array); higher = stronger binding
# Settings in all cases: glycan notation: IUPAC condensed, linker removed
# [1] = target: Gal(b1-3)[Neu5Ac(a2-6)]GalNAc
# Summary of the method: (§1)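 Columns mapping to the same glycan were averaged after glycan names were converted to IUPAC-condensed notation. The data come from 3228 arrays in the Consortium for Functional Glycomics database, limited to those with an available protein sequence. Binding is reported as a within-array Z-score averaged across arrays of one protein sequence and across linkers.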
# [2] = target: Gal(b1-3)[Neu5Ac(a2-6)]GlcNAc(b1-6)Gal(b1-4)Glc
# Summary of the method: as §1
# [3] = target: Gal(b1-3)[Neu5Ac(b2-6)]GalNAc
# Summary of the method: as §1
# [4] = target: Gal(b1-4)GalNAc(a1-3)[Fuc(a1-2)]Gal(b1-4)GlcNAc
# Summary of the method: as §1
# [5] = target: Gal(b1-4)GalNAc(b1-3)[Fuc(a1-2)]Gal(b1-4)GlcNAc
# Summary of the method: as §1
# Gal(b1-4)Glc = target: Gal(b1-4)Glc
# Summary of the method: as §1
# Gal(b1-4)Glc6S = target: Gal(b1-4)Glc6S
# Summary of the method: as §1
# Gal(b1-4)GlcNAc = target: Gal(b1-4)GlcNAc
# Summary of the method: as §1
# [6] = target: Gal(b1-4)GlcNAc(a1-6)Gal(b1-4)GlcNAc
# Summary of the method: as §1
# [7] = target: Gal(b1-4)GlcNAc(b1-2)Man(a1-3)Man(b1-4)GlcNAc(b1-4)GlcNAc
# Summary of the method: as §1
# [8] = target: Gal(b1-4)GlcNAc(b1-2)Man(a1-3)[Gal(b1-4)GlcNAc(b1-2)Man(a1-6)]Man(b1-4)GlcNAc(b1-4)GlcNAc
# Summary of the method: as §1
# [9] = target: Gal(b1-4)GlcNAc(b1-2)Man(a1-3)[Gal(b1-4)GlcNAc(b1-2)Man(a1-6)]Man(b1-4)GlcNAc(b1-4)[Fuc(a1-6)]GlcNAc
# Summary of the method: as §1
# [10] = target: Gal(b1-4)GlcNAc(b1-2)Man(a1-3)[GlcNAc(b1-2)Man(a1-6)]Man(b1-4)GlcNAc(b1-4)GlcNAc
# Summary of the method: as §1
# [11] = target: Gal(b1-4)GlcNAc(b1-2)Man(a1-3)[Man(a1-6)]Man(b1-4)GlcNAc(b1-4)GlcNAc
# Summary of the method: as §1
# [12] = target: Gal(b1-4)GlcNAc(b1-2)Man(a1-6)Man(b1-4)GlcNAc(b1-4)GlcNAc
# Summary of the method: as §1
# [13] = target: Gal(b1-4)GlcNAc(b1-2)Man(a1-6)[GlcNAc(b1-2)Man(a1-3)]Man(b1-4)GlcNAc(b1-4)GlcNAc
# Summary of the method: as §1
# [14] = target: Gal(b1-4)GlcNAc(b1-2)Man(a1-6)[Man(a1-3)]Man(b1-4)GlcNAc(b1-4)GlcNAc
# Summary of the method: as §1
# [15] = target: Gal(b1-4)GlcNAc(b1-2)[Gal(b1-4)GlcNAc(b1-4)]Man(a1-3)[Gal(b1-4)GlcNAc(b1-2)Man(a1-6)]Man(b1-4)GlcNAc(b1-4)GlcNAc
# Summary of the method: as §1
# [16] = target: Gal(b1-4)GlcNAc(b1-2)[Gal(b1-4)GlcNAc(b1-4)]Man(a1-3)[Gal(b1-4)GlcNAc(b1-2)[Gal(b1-4)GlcNAc(b1-6)]Man(a1-6)]Man(b1-4)GlcNAc(b1-4)GlcNAc
# Summary of the method: as §1
# [17] = target: Gal(b1-4)GlcNAc(b1-3)Gal(b1-3)GlcNAc
# Summary of the method: as §1
# [18] = target: Gal(b1-4)GlcNAc(b1-3)Gal(b1-4)Glc
# Summary of the method: as §1
# [19] = target: Gal(b1-4)GlcNAc(b1-3)Gal(b1-4)GlcNAc
# Summary of the method: as §1
# [20] = target: Gal(b1-4)GlcNAc(b1-3)Gal(b1-4)GlcNAc(b1-3)Gal(b1-4)GlcNAc
# Summary of the method: as §1
# [21] = target: Gal(b1-4)GlcNAc(b1-3)Gal(b1-4)[Fuc(a1-3)]GlcNAc(b1-3)Gal(b1-4)[Fuc(a1-3)]GlcNAc
# Summary of the method: as §1
# [22] = target: Gal(b1-4)GlcNAc(b1-3)GalNAc
# Summary of the method: as §1
# [23] = target: Gal(b1-4)GlcNAc(b1-3)[Gal(b1-4)GlcNAc(b1-6)]Gal(b1-4)GlcNAc
# Summary of the method: as §1
# [24] = target: Gal(b1-4)GlcNAc(b1-3)[Gal(b1-4)GlcNAc(b1-6)]GalNAc
# Summary of the method: as §1
# [25] = target: Gal(b1-4)GlcNAc(b1-3)[GlcNAc(b1-6)]Gal(b1-4)GlcNAc
# Summary of the method: as §1
# [26] = target: Gal(b1-4)GlcNAc(b1-6)Gal(b1-4)GlcNAc
# Summary of the method: as §1
# [27] = target: Gal(b1-4)GlcNAc(b1-6)GalNAc
# Summary of the method: as §1
# [28] = target: Gal(b1-4)GlcNAc(b1-6)[Gal(b1-3)]GalNAc
# Summary of the method: as §1
# Gal3S(b1-3)GalNAc = target: Gal3S(b1-3)GalNAc
# Summary of the method: as §1
# Gal3S(b1-3)GlcNAc = target: Gal3S(b1-3)GlcNAc
# Summary of the method: as §1
# [29] = target: Gal3S(b1-3)[Fuc(a1-4)]GlcNAc
# Summary of the method: as §1
# Gal3S(b1-4)Glc = target: Gal3S(b1-4)Glc
# Summary of the method: as §1
# Gal3S(b1-4)Glc6S = target: Gal3S(b1-4)Glc6S
# Summary of the method: as §1
# Gal3S(b1-4)GlcNAc = target: Gal3S(b1-4)GlcNAc
# Summary of the method: as §1
# Gal3S(b1-4)GlcNAc6S = target: Gal3S(b1-4)GlcNAc6S
# Summary of the method: as §1
binder,measurement,setting,value
B1,glycan array binding signal (z-score),[1],-1.29
same,glycan array binding signal (z-score),[2],0.34
same,glycan array binding signal (z-score),[3],-0.878
same,glycan array binding signal (z-score),[4],2.05
same,glycan array binding signal (z-score),[5],-0.25
same,glycan array binding signal (z-score),Gal(b1-4)Glc,-0.356
same,glycan array binding signal (z-score),Gal(b1-4)Glc6S,-0.287
same,glycan array binding signal (z-score),Gal(b1-4)GlcNAc,-0.852
same,glycan array binding signal (z-score),[6],-0.22
same,glycan array binding signal (z-score),[7],-0.258
same,glycan array binding signal (z-score),[8],-0.037
same,glycan array binding signal (z-score),[9],-0.356
same,glycan array binding signal (z-score),[10],-0.111
same,glycan array binding signal (z-score),[11],-0.5
same,glycan array binding signal (z-score),[12],-0.308
same,glycan array binding signal (z-score),[13],-0.711
same,glycan array binding signal (z-score),[14],0.224
same,glycan array binding signal (z-score),[15],2.58
same,glycan array binding signal (z-score),[16],-0.075
same,glycan array binding signal (z-score),[17],-0.273
same,glycan array binding signal (z-score),[18],-0.221
same,glycan array binding signal (z-score),[19],-0.828
same,glycan array binding signal (z-score),[20],-0.659
same,glycan array binding signal (z-score),[21],-0.063
same,glycan array binding signal (z-score),[22],-0.283
same,glycan array binding signal (z-score),[23],0.53
same,glycan array binding signal (z-score),[24],1.2
same,glycan array binding signal (z-score),[25],1.47
same,glycan array binding signal (z-score),[26],-0.647
same,glycan array binding signal (z-score),[27],1.2
same,glycan array binding signal (z-score),[28],-0.709
same,glycan array binding signal (z-score),Gal3S(b1-3)GalNAc,0.405
same,glycan array binding signal (z-score),Gal3S(b1-3)GlcNAc,0.006
same,glycan array binding signal (z-score),[29],-0.243
same,glycan array binding signal (z-score),Gal3S(b1-4)Glc,1.21
same,glycan array binding signal (z-score),Gal3S(b1-4)Glc6S,0.487
same,glycan array binding signal (z-score),Gal3S(b1-4)GlcNAc,1.19
same,glycan array binding signal (z-score),Gal3S(b1-4)GlcNAc6S,-0.071

# 2 entries from above, as tab-separated lines:
binder	measurement	setting	value
B1	glycan array binding signal (z-score)	Gal(b1-4)Glc	-0.356
same	glycan array binding signal (z-score)	[13]	-0.711

# Reference: the supplement of paper PMC8728848
